# Values quoted from earlier work as cited in patent publication US20260272932A1, “METHOD OF TREATING EARLY BREAST CANCER WITH RIBOCICLIB IN COMBINATION WITH AN AROMATASE INHIBITOR” (Novartis AG, priority 2023, published 2026).
# Protein sequences, listed by entry. Tags and fused reporters are not part of them.
# UniProt P08684, whole entry: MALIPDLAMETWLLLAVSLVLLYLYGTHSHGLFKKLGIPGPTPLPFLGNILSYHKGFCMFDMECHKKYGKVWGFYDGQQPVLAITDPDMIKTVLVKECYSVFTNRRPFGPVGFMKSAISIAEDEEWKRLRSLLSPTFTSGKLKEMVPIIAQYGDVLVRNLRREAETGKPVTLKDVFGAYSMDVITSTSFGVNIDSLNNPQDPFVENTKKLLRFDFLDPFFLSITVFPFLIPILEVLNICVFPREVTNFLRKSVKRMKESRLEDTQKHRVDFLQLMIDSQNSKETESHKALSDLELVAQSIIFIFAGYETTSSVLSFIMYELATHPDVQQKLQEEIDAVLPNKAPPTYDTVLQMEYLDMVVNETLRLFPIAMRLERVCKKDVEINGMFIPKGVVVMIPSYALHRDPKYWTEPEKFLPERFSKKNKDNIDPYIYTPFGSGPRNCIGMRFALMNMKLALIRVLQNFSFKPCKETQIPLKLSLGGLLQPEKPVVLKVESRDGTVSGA
# Some results were stated once for a whole list of compounds, not compound by compound. At least one structure is not confirmed: it was looked up by name or label, or the drawing left a doubt.
# Target: CYP3A4 (Homo sapiens, UniProt P08684)
# Set-up: host or cells: in vivo study subjects
# Details: cited from earlier work
row,Compound,Increase of exposure when co-administered with ketoconazole (CYP3A4 inhibitor)
1,CCCCCc1cc(O)c2c(c1)OC(C)(C)C1CCC(CO)=CC21 (centres unmarked) [11-hydroxy THC],"^6Based data that, exposure of cannabidiol (CBD), tetrahydrocannabinol (THC), 11-hydroxy THC, increased by ~2-3 folds when co-administered with ketoconazole (CYP3A4 inhibitor); Stott et al, Springerplus. 2013; 2: 236"
2,C=C(C)[C@@H]1CCC(C)=C[C@H]1c1c(O)cc(CCCCC)cc1O [cannabidiol],"^6Based data that, exposure of cannabidiol (CBD), tetrahydrocannabinol (THC), 11-hydroxy THC, increased by ~2-3 folds when co-administered with ketoconazole (CYP3A4 inhibitor); Stott et al, Springerplus. 2013; 2: 236"
